In PMC7862700:
The list shows a part of the results, in another mix than the full data. At the low end of the ranking the order means little.

Each sequence was assayed against T1, ELF3 (UniProt P78545) (assay: DAPPL (digital affinity profiling via proximity ligation, sequencing)). Settings: 10 mM Tris-HCl pH 7.5, 50 mM NaCl, 1 mM DTT, 4% glycerol, room temperature, 30 min; GST-TFs on glutathione beads, 16-mer random dsDNA library, 0.1% …; high values mean tight binding; double strand, one strand shown; scale: fold enrichment (6-mer frequency, TF over GST control).
T1 sequence: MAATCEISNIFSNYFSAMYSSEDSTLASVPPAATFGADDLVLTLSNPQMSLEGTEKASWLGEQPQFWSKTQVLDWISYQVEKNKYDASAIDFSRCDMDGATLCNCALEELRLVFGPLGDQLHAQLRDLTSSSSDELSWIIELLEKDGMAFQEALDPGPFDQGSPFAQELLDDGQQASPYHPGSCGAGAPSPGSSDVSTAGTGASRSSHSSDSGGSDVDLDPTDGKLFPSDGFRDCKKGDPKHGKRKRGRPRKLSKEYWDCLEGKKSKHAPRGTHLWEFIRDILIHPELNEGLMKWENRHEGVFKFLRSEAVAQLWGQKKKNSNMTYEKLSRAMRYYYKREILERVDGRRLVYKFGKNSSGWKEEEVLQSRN

Row | Sequence | binding signal
1 | AGGGAG | 0.346
2 | AGTCAT | 0.632
3 | GGCACG | 0.919
4 | CATCGG | 0.678
5 | ATCGGG | 0.467
6 | GAGTGA | 0.35
7 | GACCAC | 0.83
8 | GTGGAG | 0.319
9 | CATGTC | 0.841
10 | ATCAGT | 0.919
11 | GACGTC | 0.794
12 | GGTTAG | 0.861
13 | GACAAG | 0.796
14 | GAGTTA | 0.66
15 | GAGATA | 0.666
16 | AGCGTA | 0.916
17 | GGGGTA | 0.744
18 | GGGGTG | 0.591
19 | GGTAAG | 0.775
20 | AGGACA | 0.84

Row | Sequence | binding signal
21 | AGTTAG | 0.842
22 | GCCAGT | 0.324
23 | CGGGTC | 0.557
24 | TCGGTA | 0.644
25 | GTAAGG | 0.805
26 | CCAAGG | 0.941
27 | CTGAGA | 0.851
28 | GGGGAT | 0.637
29 | GTGTGC | 0.872
30 | TGGGGC | 0.713
31 | CAGGTA | 0.796
32 | CCATCG | 0.748
33 | GCGGCC | 0.738
34 | CAACGT | 0.689
35 | CCAGTC | 0.252
36 | CGTGGA | 0.446
37 | CGTGCG | 0.658
38 | GGCGAC | 0.752
39 | GGTCGA | 0.734

From no. 21 to 22, copied from above:
Row | Sequence | binding signal
21 | AGTTAG | 0.842
22 | GCCAGT | 0.324
